For at least one compound, name, drawing or mass did not settle the structure.
Test system: cellular reprogramming
Assay: Enhancement of cellular reprogramming by nuclear receptor ligands
Type: cell-based

SMILES | effect on cellular reprogramming (5 μM) | effect on cellular reprogramming (1 μM)
CC1(COc2ccc(CC3SC(=O)NC3=O)cc2)CCCCC1 (centres unmarked) [ciglitazone] | can enhance cellular reprogramming | –
C[C@@H]1C[C@H]2[C@@H]3CCC4=CC(=O)C=C[C@]4(C)[C@@]3(F)[C@@H](O)C[C@]2(C)[C@@]1(O)C(=O)CO [dexamethasone] | – | can enhance cellular reprogramming

Reference: patent US9068170B2, “Generation of pluripotent stem cells using recombinant proteins” (THE SCRIPPS RESEARCH INSTITUTE, priority 2008, dated 2015)
